Some entries share one result that the patent states for a list of compounds.
Assays:
Format in all cases: cell-based
[1] = system: Fusarium culmorum; details: 200 ppm; liquid culture, 24° C., inhibition of growth determined photometrically 3-4 days after application; vs untreated control
[2] = system: Botryotinia fuckeliana (Botrytis cinerea); experiment: Botryotinia fuckeliana (Botrytis cinerea) / liquid culture (Gray mould); details: 200 ppm, 24° C., inhibition of growth determined photometrically 3-4 days after application, vs untreated control
[3] = system: Gaeumannomyces graminis; experiment: Gaeumannomyces graminis / liquid culture (Take-all of cereals); details: 200 ppm
[4] = system: Glomerella lagenarium (Colletotrichum lagenarium); experiment: Glomerella lagenarium (Colletotrichum lagenarium) / liquid culture (Anthracnose); details: 200 ppm
[5] = system: Monographella nivalis (Microdochium nivale); experiment: Monographella nivalis (Microdochium nivale) / liquid culture (Foot rot cereals); details: 200 ppm
[6] = liquid culture, 24° C., inhibition of growth measured photometrically 3-4 days after application, vs untreated control
[7] = liquid culture, 24° C., inhibition of growth determined photometrically 4-5 days after application, vs untreated control

SMILES	disease control [1]	disease control [2]	also measured
CC1(C)N=C(c2cnn3cccc3c2)c2cccc(F)c2C1(C)C [E 1]	at least 80%	–	–
CC1(C)N=C(c2cnn3cccc3c2)c2cccc(F)c2C1(C)C.O=S(=O)(O)C(F)(F)F [E 50]	at least 80%	–	–
CC1(C)N=C(c2cnn3c(F)ccc3c2)c2cccc(F)c2C1(C)C.O=[N+]([O-])O [E 77]	at least 80%	at least 80%	disease control [3]: at least 80%; disease control [4]: at least 80%; disease control [5]: at least 80%
CC1(C)N=C(c2cnn3cccc3c2)c2cccc(F)c2C1(C)C.Cl [E 45]	–	at least 80%	disease control [4, 6]: at least 80%; disease control [5, 7]: at least 80%
CC1(C)N=C(c2cnn3c(Cl)ccc3c2)c2cccc(F)c2C1(C)C [E 13]	at least 80%	–	–
CC1(C)N=C(c2cnn3c(Cl)ccc3c2)c2cccc(F)c2C1(C)C.O=[N+]([O-])O [E 76]	–	at least 80%	disease control [4]: at least 80%; disease control [5]: at least 80%
CC1(C)N=C(c2cnn3cccc3c2)c2cccc(F)c2C1(C)C.O=[N+]([O-])O [E 49]	at least 80%	at least 80%	disease control [4, 6]: at least 80%; disease control [5, 7]: at least 80%
CC1(C)N=C(c2cnn3cccc3c2)c2cccc(F)c2C1(C)C.O=C(O)C(F)(F)F [E 51]	at least 80%	at least 80%	disease control [4, 6]: at least 80%; disease control [5, 7]: at least 80%
CC1(C)N=C(c2cnn3cccc3c2)c2cccc(F)c2C1(C)C.CS(=O)(=O)O [E 48]	at least 80%	–	–
Br.CC1(C)N=C(c2cnn3cccc3c2)c2cccc(F)c2C1(C)C [E 46]	at least 80%	–	–
CC1(C)N=C(c2cnn3cccc3c2)c2cccc(F)c2C1(C)C.O=S(=O)(O)O [E 47]	at least 80%	–	–
